# Among all 300,000 compounds or so, about 5,400 (1.8%) were called active. Inconclusive results, whose numbers are uncertain, are shown with a selection of clear calls. Calls come from the whole dose curve; tested in HEK293 cells. A potency beside an inconclusive call is a rough fit, not a confirmed value.
# Experiment: qHTS for inhibitors of binding or entry into cells for Marburg Virus
# Settings: Marburg virus pseudotyped entry inhibition, cell reporter; series mostly up to 37.8 µM
# Potency is the fitted concentration of half-maximal effect.
row,SMILES,Potency
1,COc1cccc(-c2csc(N3CCN(S(=O)(=O)c4ccc(F)cc4)CC3)n2)c1,inactive
2,COc1ccc(N2C(=O)CSC23C(=O)N2c4c(cccc43)C(C)=CC2(C)C)cc1 (centres undefined),"inconclusive: 29.1 µM [inhibitor, single point]"
3,Cc1ccc2[nH]cc(C(=O)CN3CCN(C)CC3)c2c1,"inconclusive: 0.259 µM [inhibitor, single point]"
4,O=c1[nH]cnc2scc(-c3ccccc3)c12,inactive
5,O=C(Nc1ccc([N+](=O)[O-])cc1)N1CCc2ccccc2C1,inactive
6,CN(Cc1cnn(C)c1)C(=O)CC1C(=O)NCCN1Cc1cccc(Oc2ccccc2)c1 (centres undefined),inactive
7,Nc1cc(-c2ccncc2)c[nH]c1=O,inactive
8,Cc1ccc(C(=O)NNC(=O)CCC(=O)Nc2cc(C)on2)cc1,inactive
9,CC1CC(C)CN(C(=O)c2cccc(S(=O)(=O)N3c4ccccc4CC3C)c2)C1 (centres undefined),"inconclusive: 11.2 µM [inhibitor, partial curve, poor fit]"
10,Cc1ccccc1CN1CCN(CCCc2ccccc2)C(CCO)C1 (centres undefined),"inconclusive: 22.4 µM [inhibitor, single point]"
11,COC(=O)C1CCN(CC(=O)NC(=O)NC2CCCCC2)CC1,"inconclusive: 31.6 µM [activator, single point]"
12,O=C(Nc1ccc(Oc2cccnc2)cc1)C1CCN(Cc2ccc(F)cc2)CC1,"inconclusive: 6.31 µM [inhibitor, full curve]"
13,CC1(C)CC(=O)C=C(Nc2ccc(F)cc2)C1,"inconclusive: 7.3 µM [inhibitor, partial curve, poor fit]"
14,CCCN(CCC)c1nc(-c2ccccn2)nc2ccccc12,"inconclusive: 5.62 µM [inhibitor, full curve, poor fit]"
15,O=C(/C=C/Nc1ccccc1O)c1ccco1,inactive
16,Cc1cc(C)c2c(N)c(-c3nnc(SCc4ccc(Cl)cc4)n3C)sc2n1,inactive
17,Cc1cc(-c2nnc(-c3ccccc3)c(-c3ccccc3)n2)c(C)o1,"inconclusive: 18.3 µM [inhibitor, single point]"
18,CCCCNC(=O)Nc1nc2ccccc2s1,"inconclusive: 2.51 µM [activator, partial curve, poor fit]"
19,CCOC(=O)N(C)c1ccc(C(O)(C(=O)OCC)C(F)(F)F)cc1 (centres undefined),"inconclusive: 23.1 µM [activator, single point]"
20,CCCCc1ccc(N2C(=NC(=O)C3CCCO3)SC3CS(=O)(=O)CC32)cc1 (centres undefined),"inconclusive: 2.82 µM [inhibitor, single point]"
21,COc1ccc(C(=O)Nc2ccc3nc4c(c(Nc5ccccc5OC)c3c2)CCCC4)c(OC)c1,active: 2.51 µM
22,O=c1c(C=NCc2ccccc2)c(NCc2ccccc2)nc2ccccn12,inactive
23,Cc1cc(S(=O)(=O)N(Cc2ccc(C(C)C)cc2)CC2CCCO2)ccc1-n1cnnn1 (centres undefined),"inconclusive: 23.1 µM [inhibitor, single point]"

row,SMILES,Potency
1,COc1cccc(-c2cc(C(=O)N3CCCc4ccccc43)no2)c1,inactive
2,CN(CC(=O)Nc1c(Cl)cccc1Cl)C(=O)c1ccc(-n2cncn2)c([N+](=O)[O-])c1,"inconclusive: 0.251 µM [inhibitor, full curve, poor fit]"
3,O=C1CC(c2c(F)cccc2Cl)c2c(ccc3ccccc23)N1 (centres undefined),"inconclusive: 25.1 µM [inhibitor, single point]"
4,CCN1C(=O)C(C)S/C1=N\S(=O)(=O)c1ccc(Cl)s1 (centres undefined),"inconclusive: 1.26 µM [activator, single point]"
5,O=C(CCS(=O)(=O)c1nc(-c2ccc3c(c2)OCO3)cc(C(F)(F)F)n1)Nc1ccc(Br)cc1,"inconclusive: 35.5 µM [inhibitor, partial curve, poor fit]"
6,Cc1ccc(NC(=O)c2oc3ccc(S(=O)(=O)N4CCOCC4)cc3c2C)c(C)c1,inactive
7,O=C(Nc1cccnc1)c1ccc(Cl)c(S(=O)(=O)N2CCc3ccccc32)c1,inactive
8,Cc1cc(C)c2cc(CN(CCO)C(=O)Nc3ccc(F)cc3)c(=O)[nH]c2c1,"inconclusive: 3.16 µM [inhibitor, single point]"
9,COc1ccc(-c2noc(CCC(=O)O)n2)cc1,inactive
10,COc1ccc(-n2c(-c3ccccc3)c[n+]3c2CCC3)cc1,"inconclusive: 35.5 µM [inhibitor, single point]"
11,CCN1/C(=C/C(=S)Nc2ccccc2)Sc2ccccc21,"inconclusive: 35.5 µM [inhibitor, single point]"
12,COc1cccc(/C=N/N2CCOCC2)c1O,"inconclusive: 35.5 µM [inhibitor, single point]"
13,Cc1ccc(S(=O)(=O)c2nnn3c2nc(NCCCN2CCCC2=O)c2ccccc23)cc1C,"inconclusive: 8.91 µM [inhibitor, partial curve, poor fit]"
14,Cc1cccc2c1-c1sc(C(=O)NCCCN3CCN(c4ccccc4F)CC3)cc1CO2,active: 11.2 µM
15,CCOC(=O)c1c(C)[nH]c(C(=O)OCC(O)=C(C#N)c2nc3ccccc3[nH]2)c1C,"inconclusive: 1.26 µM [inhibitor, full curve, poor fit]"
16,O=C(O)COc1ccc(-c2nnn(Cc3ccccc3F)n2)cc1,"inconclusive: 1 µM [activator, partial curve, poor fit]"
17,Brc1cc2c(cc1Br)OCCOCCOCCOCCO2,inactive
18,Cc1cc(C)n(-c2nnc(C)n2/N=C/c2ccccc2F)n1,"inconclusive: 3.66 µM [inhibitor, single point]"
19,CC(C)Cn1c(N)c(C(=O)COC(=O)c2ccc3c(c2)OCCO3)c(=O)n(C)c1=O,"inconclusive: 0.461 µM [inhibitor, full curve]"
20,CC(C)c1ccc(/C=C2\SC(N3CCCC3)=NC2=O)cc1,"inconclusive: 0.112 µM [activator, full curve, poor fit]"
21,Cc1ccc(C)c2nc(SCC(=O)NCc3cccs3)c(C#N)cc12,"inconclusive: 3.26 µM [inhibitor, partial curve, poor fit]"
22,CCOC(=O)/C=C1\SCC(=O)N1CC(=O)NC(c1ccccc1)c1ccccc1,inactive
23,CCOC(=O)c1c(C)[nH]c(C(=O)COC(=O)C2CC2C)c1C (centres undefined),"inconclusive: 0.562 µM [activator, partial curve, poor fit]"

row,SMILES,Potency
1,COc1cc(C(=O)Oc2cccc(/C=N/NC(=O)c3cc(C)[nH]n3)c2)cc(OC)c1OC,"inconclusive: 3.16 µM [inhibitor, partial curve, poor fit]"
2,Cc1ccc(N/C=C2\CCCCC2=O)nc1,inactive
3,Cc1ccc(-c2nn(CCC#N)cc2C=C(C#N)C#N)cc1,inactive
4,COc1ccc(-n2nc(C(=O)NCC(=O)N3CCN(c4ccccc4F)CC3)c3ccccc3c2=O)cc1,"inconclusive: 10 µM [inhibitor, single point]"
5,COc1ccc(C(=O)n2nnc3ccccc32)cc1OC,"inconclusive: 0.231 µM [inhibitor, full curve, poor fit]"
6,Cc1cc(C)nc(N/N=C/c2c(CO)cnc(C)c2O)n1,"inconclusive: 11.2 µM [inhibitor, partial curve, poor fit]"
7,COc1ccc2c(COC(=O)[C@H](C)NS(=O)(=O)c3ccccc3F)cc(=O)oc2c1,"inconclusive: 0.0891 µM [inhibitor, partial curve, poor fit]"
8,CCn1c(O)c(C=NCc2cccs2)c(=O)n(CC)c1=S,"inconclusive: 35.5 µM [inhibitor, partial curve, poor fit]"
9,CCc1nn(CC(=O)NCc2ccc(C)cc2)c(=O)c2cc3occc3n12,inactive
10,COC(=O)c1cc(NC(=O)CN(c2ccc(OC)cc2)S(=O)(=O)c2ccc(F)cc2)ccc1Cl,"inconclusive: 7.94 µM [inhibitor, partial curve, poor fit]"
11,CCc1nnc(NS(=O)(=O)c2ccc(NC(=S)Nc3ccc(F)cc3)cc2)s1,"inconclusive: 0.316 µM [inhibitor, partial curve, poor fit]"
12,CC1(C)NC(=O)N(CCCCOc2ccc(Cl)cc2)C1=O,inactive
13,Cc1ccc(-c2c(C(=O)N3CCN(c4ccc(F)cc4)CC3)oc(=O)c3ccccc23)cc1,inactive
14,Cc1ccc(CN2CCN(Cc3cn[nH]c3-c3cccc(F)c3)CC2CCO)o1 (centres undefined),"inconclusive: 1 µM [activator, full curve, poor fit]"
15,CCOc1ccc(C(=O)/C=C/c2cn(CC(O)CN3CCc4ccccc43)c3ccccc23)cc1 (centres undefined),"inconclusive: 35.5 µM [inhibitor, single point]"
16,Cc1cc(NC(=O)CC(F)(F)F)n(-c2ccccc2)n1,"inconclusive: 1.78 µM [activator, partial curve, poor fit]"
17,NC(=O)c1ccccc1NC(=O)CS(=O)(=O)Cc1ccccc1,inactive
18,Cn1c(=NC(=O)C2CCCCC2)sc2cc([N+](=O)[O-])ccc21,"inconclusive: 35.5 µM [activator, single point]"
19,COCCn1c(C)cc(C(=O)COC(=O)c2ccc(Br)o2)c1C,"inconclusive: 35.5 µM [inhibitor, single point]"
20,O=C(C/C=N\OCc1ccc([N+](=O)[O-])cc1)Nc1ccc(F)cc1F,inactive
21,O=c1c2ccccc2nc2n1C(CSCc1ccccc1)CS2 (centres undefined),"inconclusive: 35.5 µM [inhibitor, single point]"
22,O=C(Nc1ncc(Cc2cccc(Cl)c2Cl)s1)c1ccc([N+](=O)[O-])cc1,"inconclusive: 5.8 µM [inhibitor, full curve, poor fit]"
23,O=C(CCn1c(=O)c2ccccc2n(Cc2cccc(F)c2)c1=O)NCc1ccc2c(c1)OCO2,inactive

# An excerpt from above in order of count of non-hydrogen atoms, ascending.
row,SMILES,Potency
4,O=c1[nH]cnc2scc(-c3ccccc3)c12,inactive
18,CCCCNC(=O)Nc1nc2ccccc2s1,"inconclusive: 2.51 µM [activator, partial curve, poor fit]"
9,COc1ccc(-c2noc(CCC(=O)O)n2)cc1,inactive
16,Cc1cc(NC(=O)CC(F)(F)F)n(-c2ccccc2)n1,"inconclusive: 1.78 µM [activator, partial curve, poor fit]"
12,CC1(C)NC(=O)N(CCCCOc2ccc(Cl)cc2)C1=O,inactive
3,Cc1ccc(-c2nn(CCC#N)cc2C=C(C#N)C#N)cc1,inactive
11,COC(=O)C1CCN(CC(=O)NC(=O)NC2CCCCC2)CC1,"inconclusive: 31.6 µM [activator, single point]"
8,Cc1ccc(C(=O)NNC(=O)CCC(=O)Nc2cc(C)on2)cc1,inactive
17,Cc1cc(-c2nnc(-c3ccccc3)c(-c3ccccc3)n2)c(C)o1,"inconclusive: 18.3 µM [inhibitor, single point]"
9,CCc1nn(CC(=O)NCc2ccc(C)cc2)c(=O)c2cc3occc3n12,inactive
7,O=C(Nc1cccnc1)c1ccc(Cl)c(S(=O)(=O)N2CCc3ccccc32)c1,inactive
2,COc1ccc(N2C(=O)CSC23C(=O)N2c4c(cccc43)C(C)=CC2(C)C)cc1 (centres undefined),"inconclusive: 29.1 µM [inhibitor, single point]"
19,CC(C)Cn1c(N)c(C(=O)COC(=O)c2ccc3c(c2)OCCO3)c(=O)n(C)c1=O,"inconclusive: 0.461 µM [inhibitor, full curve]"
23,Cc1cc(S(=O)(=O)N(Cc2ccc(C(C)C)cc2)CC2CCCO2)ccc1-n1cnnn1 (centres undefined),"inconclusive: 23.1 µM [inhibitor, single point]"
6,CN(Cc1cnn(C)c1)C(=O)CC1C(=O)NCCN1Cc1cccc(Oc2ccccc2)c1 (centres undefined),inactive
5,O=C(CCS(=O)(=O)c1nc(-c2ccc3c(c2)OCO3)cc(C(F)(F)F)n1)Nc1ccc(Br)cc1,"inconclusive: 35.5 µM [inhibitor, partial curve, poor fit]"
15,CCOc1ccc(C(=O)/C=C/c2cn(CC(O)CN3CCc4ccccc43)c3ccccc23)cc1 (centres undefined),"inconclusive: 35.5 µM [inhibitor, single point]"
21,COc1ccc(C(=O)Nc2ccc3nc4c(c(Nc5ccccc5OC)c3c2)CCCC4)c(OC)c1,active: 2.51 µM
